Reference: patent publication WO2017046774A2 (dated 2017)
Results are given in words; binding and its absence hold for the method and conditions named. Some binding calls cover weakened binding; strength is not graded here. For part of these data: Sequences can lack the tags named with a protein.

T1: combination of human MCAM domains 1 and 2 (MCAMhFc domain construct) (human) (UniProt P43121)
T1 sequence: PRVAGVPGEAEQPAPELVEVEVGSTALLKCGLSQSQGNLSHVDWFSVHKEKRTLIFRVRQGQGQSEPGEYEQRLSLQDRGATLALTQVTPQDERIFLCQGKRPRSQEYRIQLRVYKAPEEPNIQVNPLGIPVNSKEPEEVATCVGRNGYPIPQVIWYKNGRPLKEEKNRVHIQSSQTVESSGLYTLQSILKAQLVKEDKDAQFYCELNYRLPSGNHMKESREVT

T2: human MCAM-Fc protein (extracellular domain of human MCAM fused to human IgG) (human) (UniProt P43121)
T2 sequence: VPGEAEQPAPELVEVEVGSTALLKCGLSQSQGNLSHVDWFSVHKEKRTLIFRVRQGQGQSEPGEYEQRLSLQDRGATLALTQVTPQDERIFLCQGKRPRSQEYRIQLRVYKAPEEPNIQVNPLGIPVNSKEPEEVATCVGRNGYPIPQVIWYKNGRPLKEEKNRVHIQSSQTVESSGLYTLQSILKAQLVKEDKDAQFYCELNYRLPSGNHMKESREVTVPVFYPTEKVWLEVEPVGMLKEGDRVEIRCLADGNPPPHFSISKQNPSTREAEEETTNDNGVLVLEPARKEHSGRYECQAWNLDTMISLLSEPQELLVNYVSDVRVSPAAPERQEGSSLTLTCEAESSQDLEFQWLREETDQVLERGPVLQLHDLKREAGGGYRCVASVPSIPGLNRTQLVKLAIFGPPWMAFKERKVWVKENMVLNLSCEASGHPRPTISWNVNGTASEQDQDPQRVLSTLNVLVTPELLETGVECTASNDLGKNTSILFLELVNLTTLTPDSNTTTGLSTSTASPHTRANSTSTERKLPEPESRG

T3: human MCAM (full length, expressed on the surface of transfected cells) (human) (UniProt P43121)
T3 sequence: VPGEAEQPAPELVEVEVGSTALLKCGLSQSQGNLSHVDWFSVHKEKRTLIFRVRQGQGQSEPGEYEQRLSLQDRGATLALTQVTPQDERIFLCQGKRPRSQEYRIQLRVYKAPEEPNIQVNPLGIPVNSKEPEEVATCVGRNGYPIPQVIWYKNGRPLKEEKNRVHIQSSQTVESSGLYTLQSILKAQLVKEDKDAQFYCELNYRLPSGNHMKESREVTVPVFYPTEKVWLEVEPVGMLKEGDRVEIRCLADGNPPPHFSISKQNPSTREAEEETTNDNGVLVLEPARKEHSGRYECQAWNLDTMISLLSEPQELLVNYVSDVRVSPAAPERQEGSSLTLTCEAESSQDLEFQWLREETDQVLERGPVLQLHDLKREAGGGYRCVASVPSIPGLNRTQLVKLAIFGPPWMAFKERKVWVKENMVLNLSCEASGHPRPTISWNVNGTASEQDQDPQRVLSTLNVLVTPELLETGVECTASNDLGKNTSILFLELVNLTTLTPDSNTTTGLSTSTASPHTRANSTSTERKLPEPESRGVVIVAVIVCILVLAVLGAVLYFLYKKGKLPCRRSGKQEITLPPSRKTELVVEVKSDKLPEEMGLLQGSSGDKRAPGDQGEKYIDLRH


What was measured:
[1] = target: T1, combination of human MCAM domains 1 and 2 (MCAMhFc domain construct) (human); experiment: ForteBio (BLI), MCAMhFc domain on anti-human IgG Fc biosensor, antibody at 5 ug/ml
[2] = target: T2, human MCAM-Fc protein (extracellular domain of human MCAM fused to human IgG) (human); experiment: summary of Examples 2-3
[3] = target: T3, human MCAM (full length, expressed on the surface of transfected cells) (human); experiment: cells expressing human MCAM

binding [1] | binding [2] | binding [3] | Binder
binds | binds | binds | rat anti-human MCAM monoclonal antibody clone 2107.4.10 (antibody, V domains shown) VH: QVQLKESGPGLVQSSQTLSLTCTVSGFSLTSNGVSWVRQPPGKGLEWIAAISSGGSTYYNSAFKSRLSISRNTSKSQVLLKMNSLQTEDTGMYFCARHRPFYFDYWGQGVMVTVSS VL: DIQVTQSPSLLSASVGDRVTLNCKGSQNIYKSLAWFRLKRGEAPKLLIYDANSLQTGIPSRFSGSGSGTDFTLTITSLQPEDVATYFCQQYYSGYTFGAGTKLELK
binds | binds | binds | rat anti-human MCAM monoclonal antibody clone 2120.4.19 (antibody, V domains shown) VH: QVQLKESGPGLVQPSQTLSLTCTVSGFSLTSNGVSWVRQPPGKGLEWIAAISSGGTTYYNSAFKSRLSISRNTSKSQVLLKMNSLQTEDTAMYFCARRYGYGWYFDFWGPGTMVTVSS VL: DIRMTQSPSLLSASVGDRVTLNCKASQNIYNSLAWYQQKLGEGPKVLIFNANSLQTGIPSRFSGSGSGTDFTLTISSLQPEDFATYFCQQFYSGYTFGAGTKLELK
